PubChem BioAssay AID1159578, Peter MacCallum Cancer Centre, 2015
Aim: 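Genome-wide hunt for genes controlling movement of lymphatic endothelial cells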 (primary screen). Cell system: human lymphatic endothelial cells. Reagent: siRNA pool against human genes, 40 nM. Timing: 48 h after transfection. Read-out: 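High-content imaging of dye-stained cells in a scratch assay measures filled wound area and nuclei per well; duplicate means given as ratio to mock and robust z-score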. Scale: migration robust z-score: higher = faster migration into the scratch; migration relative to mock: higher = more scratch area covered than mock; nuclei per well: higher = more cells in the well. Call rule: 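Pools averaging fewer than 3300 nuclei are never called; remaining pools count as changed when migration robust z lies outside -2 to 2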. Calls: active = migration changed; inactive = no migration change, or too few cells.
In all, the deposit lists about 18,000 reagents; shown is a random part of them. About 1,030 of them (5.7%) were called active. 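Inactive calls also include pools with fewer than 3300 nuclei, whose migration was not assessed.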 The raw values are shown without normalisation. No sequences are given here.

migration robust z-score	migration class with cell-count check	migration relative to mock	nuclei per well, duplicate mean	activity call	Gene	PubChem SID
0.48	migration z between -2 and 2; enough cells	1.01	5358	inactive	PNMA5 (PNMA family member 5)	SID255362258
0.55	migration z between -2 and 2; enough cells	1.02	5718	inactive	KRTCAP2 (keratinocyte associated protein 2)	SID255364029
1.12	migration z between -2 and 2; enough cells	1.02	6391	inactive	ATP2B3 (ATPase plasma membrane Ca2+ transporting 3)	SID255348455
-0.02	migration z between -2 and 2; enough cells	0.8	5360	inactive	SENP5 (SUMO specific peptidase 5)	SID255364146
0.06	migration z between -2 and 2; enough cells	0.9	7013	inactive	H2BW1 (H2B.W histone 1)	SID255363684
1.5	migration z between -2 and 2; enough cells	1.27	5172	inactive	LRTOMT	SID255364239
-0.2	migration z between -2 and 2; enough cells	0.84	6732	inactive	NENF (neudesin neurotrophic factor)	SID255357228
-0.2	migration z between -2 and 2; enough cells	0.84	6106	inactive	MEMO1 (mediator of cell motility 1)	SID255357449
2.23	migration z above 2; enough cells	1.24	5926	active	DIS3L2 (DIS3 like 3'-5' exoribonuclease 2)	SID255362837
0.53	migration z between -2 and 2; enough cells	1.02	4683	inactive	CZIB (CXXC motif containing zinc binding protein)	SID255358329
-4.4	migration z below -2; enough cells	-0.26	6129	active	MYL11 (myosin light chain 11)	SID255357200
-0.44	migration z between -2 and 2; enough cells	0.72	5824	inactive	FUBP1 (far upstream element binding protein 1)	SID255353889
0.68	migration z between -2 and 2; enough cells	0.94	5430	inactive	OGDH (oxoglutarate dehydrogenase)	SID255351344
-0.58	migration z between -2 and 2; enough cells	0.74	5433	inactive	NOTCH2NLA (notch 2 N-terminal like A)	SID255365514
-1.58	migration z between -2 and 2; enough cells	0.5	6206	inactive	KCNK3 (potassium two pore domain channel subfamily K member 3)	SID255350623
0.11	under 3300 nuclei; migration not judged	0.91	3092	inactive	GEMIN4 (gem nuclear organelle associated protein 4)	SID255357347
0.31	migration z between -2 and 2; enough cells	0.86	5568	inactive	ADAMTSL1 (ADAMTS like 1)	SID255362046
-1.02	migration z between -2 and 2; enough cells	0.62	5102	inactive	RCAN2 (regulator of calcineurin 2)	SID255354917
-1.67	migration z between -2 and 2; enough cells	0.45	5740	inactive	XKR4 (XK related 4)	SID255362238
-0.52	migration z between -2 and 2; enough cells	0.75	3558	inactive	ODF1 (outer dense fiber of sperm tails 1)	SID255351341
-1.79	migration z between -2 and 2; enough cells	0.46	4899	inactive	RIT1 (Ras like without CAAX 1)	SID255352127
-0.08	migration z between -2 and 2; enough cells	0.79	4964	inactive	BCL2L2 (BCL2 like 2)	SID255348521
-0.39	migration z between -2 and 2; enough cells	0.73	5116	inactive	ECHDC3 (enoyl-CoA hydratase domain containing 3)	SID255360437
0.1	migration z between -2 and 2; enough cells	0.91	6124	inactive	ABCG1 (ATP binding cassette subfamily G member 1)	SID255354416
-0.06	migration z between -2 and 2; enough cells	0.8	4280	inactive	PNMT (phenylethanolamine N-methyltransferase)	SID255351667
1.2	migration z between -2 and 2; enough cells	1.03	6496	inactive	GATB (glutamyl-tRNA amidotransferase subunit B)	SID255351506
-2.06	migration z below -2; enough cells	0.36	3763	active	PNPLA3	SID255360767
1.23	migration z between -2 and 2; enough cells	1.21	5799	inactive	MT1HL1 (metallothionein 1H like 1)	SID255366106
-0.24	migration z between -2 and 2; enough cells	0.76	5360	inactive	USP4 (ubiquitin specific peptidase 4)	SID255353069
-0.56	migration z between -2 and 2; enough cells	0.74	6428	inactive	KMT5B (lysine methyltransferase 5B)	SID255357486
-0.1	migration z between -2 and 2; enough cells	0.86	5790	inactive	ESPNL (espin like)	SID255365052
-2.26	migration z below -2; enough cells	0.37	3753	active	TADA3 (transcriptional adaptor 3)	SID255355109
-0.65	migration z between -2 and 2; enough cells	0.72	5668	inactive	AHSG (alpha 2-HS glycoprotein)	SID255348245
0.69	migration z between -2 and 2; enough cells	1.06	5840	inactive	EPCAM (epithelial cell adhesion molecule)	SID255350826
0.89	migration z between -2 and 2; enough cells	1.12	5796	inactive	RSPH4A (radial spoke head component 4A)	SID255365198
-0.36	migration z between -2 and 2; enough cells	0.8	6719	inactive	KLF17 (KLF transcription factor 17)	SID255362783
-0.82	migration z between -2 and 2; enough cells	0.68	5554	inactive	ZNF358 (zinc finger protein 358)	SID255363102
-0.49	migration z between -2 and 2; enough cells	0.76	5130	inactive	OR11H1 (olfactory receptor family 11 subfamily H member 1)	SID255360852
-0.57	migration z between -2 and 2; enough cells	0.7	5732	inactive	GDF10 (growth differentiation factor 10)	SID255349866
-0.38	migration z between -2 and 2; enough cells	0.79	6384	inactive	DEUP1 (deuterosome assembly protein 1)	SID255363695
-0.07	migration z between -2 and 2; enough cells	0.86	4764	inactive	TMEM69 (transmembrane protein 69)	SID255357587
-4.23	under 3300 nuclei; migration not judged	-0.01	2428	inactive	DGKA (diacylglycerol kinase alpha)	SID255349232
1.03	migration z between -2 and 2; enough cells	1.16	6866	inactive	AGPAT4 (1-acylglycerol-3-phosphate O-acyltransferase 4)	SID255359144
0.12	migration z between -2 and 2; enough cells	0.92	4892	inactive	LSM6	SID255355639
-1.42	migration z between -2 and 2; enough cells	0.52	6393	inactive	SMYD4 (SET and MYND domain containing 4)	SID255362259
-1.35	migration z between -2 and 2; enough cells	0.55	5958	inactive	ITGB1 (integrin subunit beta 1)	SID255350549
-1.2	migration z between -2 and 2; enough cells	0.57	6384	inactive	SPRR2B (small proline rich protein 2B)	SID255352606

Next part (4 carried over from the part before).
migration robust z-score	migration class with cell-count check	migration relative to mock	nuclei per well, duplicate mean	activity call	Gene	PubChem SID
0.12	migration z between -2 and 2; enough cells	0.92	4892	inactive	LSM6	SID255355639
-1.42	migration z between -2 and 2; enough cells	0.52	6393	inactive	SMYD4 (SET and MYND domain containing 4)	SID255362259
-1.35	migration z between -2 and 2; enough cells	0.55	5958	inactive	ITGB1 (integrin subunit beta 1)	SID255350549
-1.2	migration z between -2 and 2; enough cells	0.57	6384	inactive	SPRR2B (small proline rich protein 2B)	SID255352606
1.02	migration z between -2 and 2; enough cells	1	6262	inactive	UGGT2 (UDP-glucose glycoprotein glucosyltransferase 2)	SID255358836
-0.05	migration z between -2 and 2; enough cells	0.8	5178	inactive	GTF2H3 (general transcription factor IIH subunit 3)	SID255350092
-1.49	migration z between -2 and 2; enough cells	0.5	4588	inactive	HIRIP3 (HIRA interacting protein 3)	SID255353581
-0.7	migration z between -2 and 2; enough cells	0.7	4578	inactive	KLHL13 (kelch like family member 13)	SID255361803
0	migration z between -2 and 2; enough cells	0.8	5688	inactive	TMPRSS13 (transmembrane serine protease 13)	SID255361160
0.5	migration z between -2 and 2; enough cells	1.02	7380	inactive	PABIR1	SID255362359
-0.17	migration z between -2 and 2; enough cells	0.84	4908	inactive	MSLNL (mesothelin like)	SID255365805
-1	migration z between -2 and 2; enough cells	0.62	5528	inactive	EEIG1 (estrogen-induced osteoclastogenesis regulator 1)	SID255365717
-1.12	migration z between -2 and 2; enough cells	0.6	4958	inactive	ZDHHC15 (zDHHC palmitoyltransferase 15)	SID255363681
-1.02	migration z between -2 and 2; enough cells	0.62	3372	inactive	RBBP8 (RB binding protein 8, endonuclease)	SID255352064
0.26	migration z between -2 and 2; enough cells	0.86	3994	inactive	EIF3J (eukaryotic translation initiation factor 3 subunit J)	SID255353725
0.48	migration z between -2 and 2; enough cells	1.01	5538	inactive	SRSF3 (serine and arginine rich splicing factor 3)	SID255352378
-0.65	migration z between -2 and 2; enough cells	0.72	4670	inactive	TOMM40L (translocase of outer mitochondrial membrane 40 like)	SID255361209
-0.78	migration z between -2 and 2; enough cells	0.66	5266	inactive	ITGB7 (integrin subunit beta 7)	SID255350556
0.67	migration z between -2 and 2; enough cells	1.05	4794	inactive	CIART (circadian associated repressor of transcription)	SID255363386
1.07	migration z between -2 and 2; enough cells	1.17	4812	inactive	IRF2BPL (interferon regulatory factor 2 binding protein like)	SID255359867
-0.62	migration z between -2 and 2; enough cells	0.68	5710	inactive	B4GALNT1 (beta-1,4-N-acetyl-galactosaminyltransferase 1)	SID255349815
-1.68	migration z between -2 and 2; enough cells	0.44	5220	inactive	SQSTM1 (sequestosome 1)	SID255353887
-1.32	migration z between -2 and 2; enough cells	0.55	5450	inactive	SLC41A2	SID255361195
0.52	migration z between -2 and 2; enough cells	0.9	5534	inactive	SLC20A1	SID255352500
-0.64	migration z between -2 and 2; enough cells	0.68	5862	inactive	CYP11A1 (cytochrome P450 family 11 subfamily A member 1)	SID255349215
0.19	migration z between -2 and 2; enough cells	0.94	6954	inactive	TMEM106B (transmembrane protein 106B)	SID255358119
0.42	migration z between -2 and 2; enough cells	1	6289	inactive	APOD (apolipoprotein D)	SID255348354
1.26	migration z between -2 and 2; enough cells	1.22	4074	inactive	CARD14 (caspase recruitment domain family member 14)	SID255360214
1.02	migration z between -2 and 2; enough cells	1	4103	inactive	SIK3 (SIK family kinase 3)	SID255356203
-0.19	migration z between -2 and 2; enough cells	0.84	7605	inactive	KRT85 (keratin 85)	SID255350706
